The values below come from US10238688B2, “Combination therapies for bladder cancer” (GENEDIA BIOTECH CO. LTD., priority 2015, dated 2019).

In the series the test system is nine cancer-associated signaling pathways. The experiment in a line: Pearson correlation of collective drug-triggered pathway activities (single drug versus EH/Ci/Mi regimen). To be noted: for Digitalized drug-triggered changes, number of pathways (1): activated; for Digitalized drug-triggered changes, number of pathways 0: null; for Digitalized drug-triggered changes, number of pathways (−1): repressed.

Take `COC12C(COC(N)=O)C3=C(C(=O)C(C)=C(N)C3=O)N1CC1NC12` (stereo not drawn) [Mi, [6-Amino-8a-methoxy-5-methyl-4,7-dioxo-1,1a,2,4,7,8,8a,8b-octahydroazireno [2′,3′:3,4]pyrrolo[1,2-a]indol-8-yl]methyl carbamate]: the “Digitalized drug-triggered changes, number of pathways (1)” value (shortened to “Digitalized drug-triggered changes … (1)”) was 8 (5637 cells); 4 (Biu87 cells); 1 (H-bc cells); 3 (SV-HUC-1 cells); 2 (UM-UC-3 cells). The “Digitalized drug-triggered changes, number of pathways 0” value amounted to 1 (5637 cells); 5 (Biu87 cells); 3 (H-bc cells); 6 (SV-HUC-1 cells); 5 (UM-UC-3 cells). The “Digitalized drug-triggered changes, number of pathways (−1)” value (from here on “Digitalized drug-triggered changes … (−1)”) turned out to be 0 (5637 cells); 0 (Biu87 cells); 5 (H-bc cells); 0 (SV-HUC-1 cells); 2 (UM-UC-3 cells).
With `N.N.[Cl][Pt][Cl]` [Ci, (SP-4-2)-diamminedichloroplatinum(II)], the “Digitalized drug-triggered changes … (1)” value came to 5 (5637 cells); 1 (Biu87 cells); 1 (H-bc cells); 3 (SV-HUC-1 cells); 6 (UM-UC-3 cells). In addition, the “Digitalized drug-triggered changes, number of pathways 0” value reads like this: (5637 cells) 3; (Biu87 cells) 6; (H-bc cells) 5; (SV-HUC-1 cells) 6; (UM-UC-3 cells) 0. The “Digitalized drug-triggered changes … (−1)” value is, setting by setting: (5637 cells) 1; (Biu87 cells) 2; (H-bc cells) 3; (SV-HUC-1 cells) 0; (UM-UC-3 cells) 3.
For `COc1cccc2c1C(=O)c1c(O)c3c(c(O)c1C2=O)C[C@@](O)(C(=O)CO)C[C@@H]3[C@@H]1C[C@H](N)[C@@H](O)[C@H](C)O1` [EH, (8R,10S)-10-((2S,4S,5R,6S)-4-amino-5-hydroxy-6-methyltetrahydro-2H-pyran-2-yl)-6,8,11-trihydroxy-8-(2-hydroxyacetyl)-1-methoxy-7,8,9,10-tetrahydrotetracene-5,12-dione], the “Digitalized drug-triggered changes … (1)” value is, setting by setting: (5637 cells) 6; (Biu87 cells) 4; (H-bc cells) 3; (SV-HUC-1 cells) 4; (UM-UC-3 cells) 4. For the same molecule, the “Digitalized drug-triggered changes, number of pathways 0” value is, setting by setting: (5637 cells) 3; (Biu87 cells) 5; (H-bc cells) 6; (SV-HUC-1 cells) 5; (UM-UC-3 cells) 3. The “Digitalized drug-triggered changes … (−1)” value reads like this: (5637 cells) 0; (Biu87 cells) 0; (H-bc cells) 0; (SV-HUC-1 cells) 0; (UM-UC-3 cells) 1.
